Measurements as given in PubChem BioAssay AID330 (DTP/NCI, 2004).
The list shows only some results of the screen, not a fair sample: it is rich in T/C values a quarter to a half above the control, in often repeated tests (any T/C) and in doses without a T/C. Other doses and runs of a compound stand elsewhere. T/C is the treated group as % of the vehicle group. Some entries give survivors of the animals treated and no T/C: the source files T/C as zero there, which appears to mark a toxic dose or a test without result, not a measured value. Some survivor counts are full or nearly so, which does not show that the dose was tolerated: the source hardly ever lists a survival T/C far under the control, and the zero likely stands for such cases as well. Counts of survivors are from the toxicity check (mostly the fifth day) where no day follows; animals may have died later. Schedules are NCI's codes, read here as Q, the interval in days (D) or hours (H), X, the number of doses. Some entries hold several experiments; their values stand side by side, smallest first. Where survival is the endpoint, the PubChem record calls one and a half times the control and up active, and a quarter to a half above the control has no call in these data; cut-offs in other NCI protocols can differ. Marks such as (2×) stand for listed records that agree. Some T/C values carry the count of animals alive at the toxicity check (mostly the fifth day); without a count, all were alive then.

Test system: P388 leukemia ip, CD2F1 mice, survival T/C
Test: NCI In Vivo Anticancer Drug Screen. Data for tumor model P388 Leukemia (intraperitoneal) in CD2F1 (CDF1) mice
Settings: T/C endpoint: median survival time, higher T/C = longer survival
[1] = dose: 60.0 mg/kg/injection, schedule: Q01DX005 (ip), vehicle: saline with Tween-80
[2] = dose: 120.0 mg/kg/injection, schedule: Q01DX005 (ip), vehicle: saline with Tween-80
[3] = dose: 240.0 mg/kg/injection, schedule: Q01DX005 (ip), vehicle: saline with Tween-80
[4] = dose: 50.0 mg/kg/injection, schedule: Q01DX009 (ip), vehicle: saline with Tween-80
[5] = dose: 100.0 mg/kg/injection, schedule: Q01DX009 (ip), vehicle: saline with Tween-80
[6] = dose: 200.0 mg/kg/injection, schedule: Q01DX009 (ip), vehicle: saline with Tween-80
[7] = dose: 200.0 mg/kg/injection, schedule: Q01DX009 (ip), vehicle: Klucel (hydroxypropylcellulose) (HPC)

## CNc1ccc(CN2CCCCC2)cc1C
dose: 7.5 mg/kg/injection, schedule: Q01DX005 (ip), vehicle: Klucel (hydroxypropylcellulose) (HPC)
  survivor count: 0 of 6
dose: 15.0 mg/kg/injection, schedule: Q01DX005 (ip), vehicle: Klucel (hydroxypropylcellulose) (HPC)
  survivor count: 0 of 6
dose: 60.0 mg/kg/injection, schedule: Q01DX005 (ip), vehicle: Klucel (hydroxypropylcellulose) (HPC)
  survivor count: 1 of 6
dose: 120.0 mg/kg/injection, schedule: Q01DX005 (ip), vehicle: Klucel (hydroxypropylcellulose) (HPC)
  survivor count: 0 of 6
dose: 240.0 mg/kg/injection, schedule: Q01DX005 (ip), vehicle: Klucel (hydroxypropylcellulose) (HPC)
  survivor count: 0 of 6

## Cc1ccc(NCCCC2CCCN3CCCCC23)c2c(=O)c3ccccc3sc12 (stereo unspecified)
dose: 100.0 mg/kg/injection, schedule: Q01DX005 (ip), vehicle: distilled water + Tween-80
  survivor count: 4 of 6
dose: 200.0 mg/kg/injection, schedule: Q01DX005 (ip), vehicle: distilled water + Tween-80
  survivor count: 0 of 6

## CCCCCCCCSC(=O)n1cc(F)c(=O)[nH]c1=O
[1]
  T/C: 137 % of control
[2]
  T/C: 132 % of control
  survivor count: 6 of 6
[3]
  survivor count: 3 of 6

## CN(C)CCCNc1ccc(NCCCN(C)C)c2c1C(=O)c1ccccc1C2=O
dose: 50.0 mg/kg/injection, schedule: Q01DX009 (ip), vehicle: water
  survivor count: 6 of 6
dose: 100.0 mg/kg/injection, schedule: Q01DX009 (ip), vehicle: water
  survivor count: 1 of 6
dose: 200.0 mg/kg/injection, schedule: Q01DX009 (ip), vehicle: water
  survivor count: 0 of 6

## OC(CCC(O)(C(F)(F)F)C(F)(F)F)(C(F)(F)F)C(F)(F)F
dose: 100.0 mg/kg/injection, schedule: Q01DX005 (ip), vehicle: saline with Tween-80
  survivor count: 0 of 5
dose: 200.0 mg/kg/injection, schedule: Q01DX005 (ip), vehicle: saline with Tween-80
  survivor count: 0 of 5

## Cc1cc(N/N=C/c2ccc(F)cc2)c2cc3c(cc2n1)OCO3
dose: 100.0 mg/kg/injection, schedule: Q01DX005 (ip), vehicle: Klucel (hydroxypropylcellulose) (HPC)
  survivor count: 1 of 6
dose: 200.0 mg/kg/injection, schedule: Q01DX005 (ip), vehicle: Klucel (hydroxypropylcellulose) (HPC)
  survivor count: 0 of 6

## COc1ccc(/C=C2/SC(=S)N(C(C)C)C2=O)cc1OC
[4]
  survivor count: 6 of 6
[5]
  survivor count: 6 of 6
[6]
  survivor count: 5 of 6

## COC(=O)C1C(O)C(C)C(O)OC1C(C)C(O)C(C)/C=C\C=C(/C)C(=O)Nc1c(C)c(OC(C)=O)c2c(c1O)C(=O)C(C)=C1OCOC(/C(C)=C/C(C)=O)=C12 (stereo unspecified)
[7]
  survivor count: 1 of 6

## CCc1cccc(NC(=O)NNC(=O)c2ccncc2)c1
[7]
  survivor count: 2 of 6

## OCc1ccc2c(c1)CCC2
dose: 100.0 mg/kg/injection, schedule: Q01DX009 (ip), vehicle: other
  survivor count: 2 of 6
dose: 200.0 mg/kg/injection, schedule: Q01DX009 (ip), vehicle: other
  survivor count: 0 of 6

## C=C1CC2(OC1=O)C(=O)N(C)c1ccc(I)cc12 (stereo unspecified)
dose: 12.5 mg/kg/injection, schedule: Q01DX009 (ip), vehicle: saline
  T/C: 126 and 129 % of control
dose: 25.0 mg/kg/injection, schedule: Q01DX009 (ip), vehicle: saline
  T/C: 139 % of control [5 of 6 alive]
dose: 50.0 mg/kg/injection, schedule: Q01DX009 (ip), vehicle: saline
  survivor count: 3 of 6
dose: 100.0 mg/kg/injection, schedule: Q01DX009 (ip), vehicle: saline
  survivor count: 0 of 6 and 2 of 6

## C=CCNC(=O)/C=C\C(=O)O
dose: 25.0 mg/kg/injection, schedule: Q01DX009 (ip), vehicle: saline with Tween-80
  T/C: 92, 101 (2×), 108 % of control
[4]
  T/C: 99, 103, 105, 106 % of control
[5]
  T/C: 101, 101 [5 of 6 alive], 105, 108 % of control
[6]
  T/C: 101 [5 of 6 alive], 105, 106, 120 % of control

## CC(=O)Nc1ccc(/C=C/c2ccc(N=C=S)c(S(=O)(=O)O)c2)c(S(=O)(=O)O)c1
[1]
  T/C: 126 % of control
[2]
  T/C: 126 % of control
[3]
  survivor count: 0 of 6
